In the data set the test system is proteins from the brush border tissue of the small intestine. As to the kind of experiment: Photoaffinity labeling and binding studies with brush border vesicles. The settings on record: rabbit brush border membrane vesicles, SDS polyacrylamide gel, FIG. 1.

In the case of `COc1ccc(C2C(CCC(O)c3ccccc3)C(=O)N2c2ccc(CNC(=O)c3ccc(N=[N+]=[N-])cc3)cc2)cc1` (centres unmarked) [formula II, 4-azido-N-{4-[3-(3-hydroxy-3-phenyl-propyl)-2-(4-methoxyphenyl)-4-oxoazetidin-1-yl]benzyl}benzamide], the “molecular weight of proteins labeled by the radiolabeled compound” value is 145 kDa, 97 kDa, 87 kDa and 41 kDa.

On to `COc1ccc(C2C(CCC(O)c3ccccc3)C(=O)N2c2ccc(CNC(C)=O)cc2)cc1` (centres unmarked) [formula I, N-{4-[3-(3-hydroxy-3-phenylpropyl)-2-(4-methoxyphenyl)-4-oxoazetidin-1-yl]benzyl}acetamide], for which the “molecular weight of proteins labeled by the radiolabeled compound” value is 145 kDa, 97 kDa, 72 kDa, 63 kDa, 58 kDa, 41 kDa 32 kDa and 25 kDa.

These data come from patent publication US6794359B2, “Vertebrate intestinal protein which absorbs cholesterol, its inhibitors and mehtod of identifying the same” (Aventis Pharma Deutschland GmbH, priority 2000, dated 2004).
